Test system: human bone marrow MSC
Assay: Microarray gene expression analysis of MSC (Illumina Human HT12 Expression BeadChip)
Assay type: cell-based
Settings: 250 μg/mL, 24 h
Protocol: Human bone marrow MSC were expanded and seeded into six (6) T225 flasks using standard growth medium (Table 1). At 95-99% confluency, cells were thoroughly washed with PBS. Three (3) flasks were replenished with basal media containing 250 μg/mL treprostinil, (+)Tre, and the remaining three (3) flasks were replenished with unsupplemented basal media, (−)Tre. After 24 hours of culture, representative images were captured from (+) Tre and (−) Tre cultures. Conditioned media was collected from each replicate, divided into two samples of appropriate volumes, and analyzed separately for: 1) secreted proteins (Myriad RBM InflammationMAP® 1.0) and 2) exosome RNA content. Cells were lysed directly from culture flasks, processed for total RNA isolation, and analyzed for gene expression by microarray (Illumina Human HT12 Expression BeadChip). Microarray gene expression analysis was also performed on MSC from cultures without (−) or with (+) 250 ug/mL treprostinil. Three (3) biological replicates from each condition were analyzed. Of the 77,612 sequences identified among all replicates, only 24,273 were detected above the arbitrary background of 50 counts. 2,984 RNA sequences were unique to Tre(−) cultures, while 1,781 RNA sequences were unique to Tre(+) cultures (panel A). Genes detected in both conditions were further analyzed for differential expression (panel). […] Genes that are expressed only in Tre(−) cultures (that is to say, completely turned off in the Tre(+) cultures) are shown in Table 5.

For `CCCCC[C@H](O)CC[C@@H]1[C@H]2Cc3cccc(OCC(=O)O)c3C[C@H]2C[C@H]1O` [treprostinil], the “Genes at least 4-fold higher in Tre(+) MSC cultures” value was 171, the “Genes at least 4-fold higher in untreated MSC” value was 268 and the “Commonly expressed genes that differed significantly (p<0.01)” value (of 19,508 genes) was 1,690. For the same compound, the “RNA sequences unique to Tre(+) cultures” value (of 24,273 detected) was 1,781 and the “RNA sequences unique to Tre(−) cultures” value (of 24,273 detected) was 2,984.

From US12274684B2, “Treatment of vasculopathy with prostacyclin and mesenchymal stem cells” (United Therapeutics Corporation, priority 2013, dated 2025)
